Laboratory results taken from article PMC3365051, “Sequence-Specific Binding of Recombinant Zbed4 to DNA: Insights into Zbed4 Participation in Gene Transcription and Its Association with Other Proteins”.
These are yes or no findings as the source states them, for the method shown. For some assays here: Binding seen in cells or lysates may run through a third protein. Some entries that bind do so weakly or less than the wild type. For some assays here: Sequences can lack the tags named with a protein.

Protein sequences, listed by entry. Tags and fused reporters are not part of them.
UniProt P03372: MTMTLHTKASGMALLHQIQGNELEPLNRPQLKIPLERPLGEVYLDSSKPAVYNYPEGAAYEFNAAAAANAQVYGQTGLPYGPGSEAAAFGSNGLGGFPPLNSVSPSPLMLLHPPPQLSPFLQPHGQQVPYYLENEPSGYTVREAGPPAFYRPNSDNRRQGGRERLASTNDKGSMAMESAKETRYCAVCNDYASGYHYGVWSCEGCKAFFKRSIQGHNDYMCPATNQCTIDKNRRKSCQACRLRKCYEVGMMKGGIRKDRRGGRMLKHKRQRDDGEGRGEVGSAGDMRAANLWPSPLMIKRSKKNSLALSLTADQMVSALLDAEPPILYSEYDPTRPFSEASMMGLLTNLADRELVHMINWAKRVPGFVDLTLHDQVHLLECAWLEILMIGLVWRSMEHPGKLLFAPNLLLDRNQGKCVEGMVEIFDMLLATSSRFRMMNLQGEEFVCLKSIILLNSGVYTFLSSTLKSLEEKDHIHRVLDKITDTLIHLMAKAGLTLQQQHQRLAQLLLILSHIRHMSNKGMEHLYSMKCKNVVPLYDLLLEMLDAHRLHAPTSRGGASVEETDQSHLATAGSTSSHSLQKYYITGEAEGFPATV
UniProt Q15424: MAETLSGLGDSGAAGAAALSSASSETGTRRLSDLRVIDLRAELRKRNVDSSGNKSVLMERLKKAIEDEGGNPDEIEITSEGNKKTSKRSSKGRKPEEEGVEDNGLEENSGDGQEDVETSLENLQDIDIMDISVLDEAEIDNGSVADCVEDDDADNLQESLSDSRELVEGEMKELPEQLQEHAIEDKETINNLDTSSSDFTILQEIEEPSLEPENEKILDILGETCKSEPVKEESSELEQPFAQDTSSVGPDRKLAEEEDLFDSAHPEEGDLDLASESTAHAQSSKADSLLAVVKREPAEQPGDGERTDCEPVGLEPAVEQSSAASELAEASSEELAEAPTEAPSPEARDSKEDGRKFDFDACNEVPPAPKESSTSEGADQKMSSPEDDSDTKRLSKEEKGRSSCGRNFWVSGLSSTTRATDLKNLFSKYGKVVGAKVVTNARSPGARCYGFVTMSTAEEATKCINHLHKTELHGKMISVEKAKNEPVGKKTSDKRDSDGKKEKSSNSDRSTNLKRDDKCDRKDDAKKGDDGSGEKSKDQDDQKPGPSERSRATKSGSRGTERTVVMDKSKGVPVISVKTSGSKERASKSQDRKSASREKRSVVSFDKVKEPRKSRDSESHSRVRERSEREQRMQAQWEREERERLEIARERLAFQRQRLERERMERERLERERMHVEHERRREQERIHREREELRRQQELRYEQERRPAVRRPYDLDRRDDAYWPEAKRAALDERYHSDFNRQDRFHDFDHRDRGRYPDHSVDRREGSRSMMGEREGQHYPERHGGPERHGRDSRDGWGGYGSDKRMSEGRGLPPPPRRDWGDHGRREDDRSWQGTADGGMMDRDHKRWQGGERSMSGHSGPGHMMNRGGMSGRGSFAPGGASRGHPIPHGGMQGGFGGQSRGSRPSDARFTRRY
UniProt P35579: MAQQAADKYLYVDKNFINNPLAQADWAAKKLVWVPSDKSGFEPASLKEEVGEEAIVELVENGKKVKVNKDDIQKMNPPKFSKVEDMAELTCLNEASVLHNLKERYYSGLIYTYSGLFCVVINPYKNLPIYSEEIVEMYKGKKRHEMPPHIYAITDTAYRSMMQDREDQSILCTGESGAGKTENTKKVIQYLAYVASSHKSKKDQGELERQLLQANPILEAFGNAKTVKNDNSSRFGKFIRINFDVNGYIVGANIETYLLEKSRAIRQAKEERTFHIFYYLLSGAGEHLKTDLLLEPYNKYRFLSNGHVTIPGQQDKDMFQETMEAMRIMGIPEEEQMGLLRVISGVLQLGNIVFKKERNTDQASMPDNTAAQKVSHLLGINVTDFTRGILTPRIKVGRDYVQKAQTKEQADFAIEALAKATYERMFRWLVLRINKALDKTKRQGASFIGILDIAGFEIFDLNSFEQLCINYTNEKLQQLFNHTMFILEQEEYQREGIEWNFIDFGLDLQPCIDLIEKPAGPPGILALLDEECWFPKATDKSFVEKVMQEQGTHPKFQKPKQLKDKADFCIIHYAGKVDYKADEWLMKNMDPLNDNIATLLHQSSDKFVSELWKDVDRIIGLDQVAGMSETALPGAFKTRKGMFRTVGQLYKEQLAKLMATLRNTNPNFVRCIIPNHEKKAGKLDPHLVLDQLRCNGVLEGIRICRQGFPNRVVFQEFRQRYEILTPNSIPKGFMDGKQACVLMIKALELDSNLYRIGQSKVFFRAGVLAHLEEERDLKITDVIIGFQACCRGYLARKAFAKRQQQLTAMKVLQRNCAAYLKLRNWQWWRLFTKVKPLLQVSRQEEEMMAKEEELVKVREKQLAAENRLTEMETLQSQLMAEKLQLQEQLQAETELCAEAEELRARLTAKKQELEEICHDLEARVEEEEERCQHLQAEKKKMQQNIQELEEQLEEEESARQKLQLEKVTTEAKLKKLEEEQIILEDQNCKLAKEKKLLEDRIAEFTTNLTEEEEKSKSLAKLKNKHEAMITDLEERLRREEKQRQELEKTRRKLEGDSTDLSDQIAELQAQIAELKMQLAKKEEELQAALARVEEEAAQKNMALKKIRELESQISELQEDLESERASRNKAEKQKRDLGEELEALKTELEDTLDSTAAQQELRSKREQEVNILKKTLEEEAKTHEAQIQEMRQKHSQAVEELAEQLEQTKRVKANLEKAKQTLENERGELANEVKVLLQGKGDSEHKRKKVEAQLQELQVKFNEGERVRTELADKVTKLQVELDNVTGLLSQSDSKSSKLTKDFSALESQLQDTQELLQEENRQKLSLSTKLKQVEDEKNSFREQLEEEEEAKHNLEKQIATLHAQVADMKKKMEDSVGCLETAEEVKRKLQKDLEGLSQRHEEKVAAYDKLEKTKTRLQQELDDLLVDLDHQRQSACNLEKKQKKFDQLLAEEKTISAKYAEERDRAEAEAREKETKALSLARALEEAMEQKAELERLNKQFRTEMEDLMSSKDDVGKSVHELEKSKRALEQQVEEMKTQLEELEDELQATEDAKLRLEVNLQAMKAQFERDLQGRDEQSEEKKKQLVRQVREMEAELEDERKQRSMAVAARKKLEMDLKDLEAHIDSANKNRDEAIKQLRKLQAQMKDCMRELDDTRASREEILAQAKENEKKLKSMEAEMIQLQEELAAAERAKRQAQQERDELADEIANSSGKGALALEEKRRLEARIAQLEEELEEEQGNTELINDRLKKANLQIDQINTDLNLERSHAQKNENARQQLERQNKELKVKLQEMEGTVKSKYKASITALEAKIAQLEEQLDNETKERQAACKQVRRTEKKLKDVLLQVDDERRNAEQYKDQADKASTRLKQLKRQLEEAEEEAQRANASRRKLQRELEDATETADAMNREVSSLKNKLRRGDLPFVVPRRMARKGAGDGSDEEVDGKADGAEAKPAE

Experiments:
[1] = target: T1, endogenous ZBED4 of Y79 retinoblastoma cells (human (endogenous in Y79)) (UniProt O75132); assay: co-IP; Y79 retinoblastoma cell (nuclear) extracts; immunoprecipitation with Zbed4, SAFB1 or MYH9 antibodies; Western blot with the partner's antibody; endogenous proteins
T1 sequence: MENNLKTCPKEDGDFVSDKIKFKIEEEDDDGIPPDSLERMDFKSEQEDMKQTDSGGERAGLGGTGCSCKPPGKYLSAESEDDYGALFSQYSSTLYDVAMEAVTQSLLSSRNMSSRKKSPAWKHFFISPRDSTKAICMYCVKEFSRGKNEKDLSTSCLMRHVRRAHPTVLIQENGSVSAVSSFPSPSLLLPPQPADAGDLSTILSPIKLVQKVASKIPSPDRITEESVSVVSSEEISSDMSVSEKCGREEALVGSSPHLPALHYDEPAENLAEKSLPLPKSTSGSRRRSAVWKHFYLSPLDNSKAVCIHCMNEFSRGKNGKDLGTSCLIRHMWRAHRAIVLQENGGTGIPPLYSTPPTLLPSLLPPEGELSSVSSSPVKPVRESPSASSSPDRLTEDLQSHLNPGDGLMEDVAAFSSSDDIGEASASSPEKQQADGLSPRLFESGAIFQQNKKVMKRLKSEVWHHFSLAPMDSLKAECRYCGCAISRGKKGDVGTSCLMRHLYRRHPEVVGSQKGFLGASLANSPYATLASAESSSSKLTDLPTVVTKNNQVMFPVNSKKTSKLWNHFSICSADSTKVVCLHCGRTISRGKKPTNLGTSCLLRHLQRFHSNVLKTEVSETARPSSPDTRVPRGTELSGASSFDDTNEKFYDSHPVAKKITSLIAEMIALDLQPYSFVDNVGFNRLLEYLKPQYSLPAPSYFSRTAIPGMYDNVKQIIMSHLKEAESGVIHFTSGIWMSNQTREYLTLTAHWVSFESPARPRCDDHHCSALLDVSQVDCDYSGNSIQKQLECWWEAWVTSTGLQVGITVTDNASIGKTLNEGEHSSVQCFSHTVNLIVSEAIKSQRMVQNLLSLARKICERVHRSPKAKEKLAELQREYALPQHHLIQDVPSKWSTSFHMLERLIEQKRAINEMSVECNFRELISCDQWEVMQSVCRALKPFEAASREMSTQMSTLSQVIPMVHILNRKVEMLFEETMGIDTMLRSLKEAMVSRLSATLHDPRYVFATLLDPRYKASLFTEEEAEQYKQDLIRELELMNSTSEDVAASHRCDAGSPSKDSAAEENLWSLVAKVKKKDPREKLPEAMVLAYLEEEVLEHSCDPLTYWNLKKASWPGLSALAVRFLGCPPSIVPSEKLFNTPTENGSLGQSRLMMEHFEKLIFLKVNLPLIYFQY

[2] = target: estrogen receptor alpha (human (endogenous in Y79)) (UniProt P03372); assay: far-Western, overlay or dot blot; Y79 nuclear extract resolved by SDS-PAGE and transferred to PVDF; overlaid with purified Zbed4 (5-10 ug/ml) for 2 h at 5°C in 10 mM Tris-HCl pH 8, 150 mM NaCl, 0.05% Tween-20; lanes probed with Zbed4, SAFB1 or ERα antibodies; only the binder purified
[3] = target: Scaffold Attachment Factor B1 (human (endogenous in Y79)) (UniProt Q15424); assay: as above
[4] = target: Scaffold Attachment Factor B1 (human (endogenous in Y79)) (UniProt Q15424); assay: co-IP; Y79 retinoblastoma cell (nuclear) extracts; immunoprecipitation with Zbed4, SAFB1 or MYH9 antibodies; Western blot with the partner's antibody; endogenous proteins
[5] = target: cellular myosin 9 (human (endogenous in Y79)) (UniProt P35579); assay: as above

cellular myosin 9 (from UniProt P35579 1-1960)
binding [1]: binds

B1: recombinant Zbed4 (mouse), His-tagged, refolded (protein, UniProt Q80WQ9 1-1168)
chain: MEDKQETCPKGDSDFVSDKVNFKTEEDDDQTPCHSLEQVDFKSESEDMRQTDSGDEQADIRAASCACQPSGKFLAAESEDDYGSLFSQYSSTLYSVAMEAVTQSLLSSRHISSRKKSPAWKHFFISPRDSTKAICTYCMKEFSRGKNEKDLSTSCLMRHVRRAHPTKLIQENGSLSAGSSFSPPSLLLPPQPADVGDLSTVLSPVRLVQKMAPKIPSPDQIMEESVTVVSSEELSSDVSVTEKYSREEALAGSSPNLSMLHYDDASETMADRNLSLPKSTSGSRRRSAVWKHFYLSPLDSSKAVCVHCMNEFSRGKNGKDLGTSCLIRHMWRAHRSIVLQENGGNTGIPPLYPMPPTLLPALLPPEGDLNSASLSPGKQVKESPSASSSPERLPEDLSSHTNPGDVSREDVSMLSSSDDLGEASVVSSPEKQPADTVNPRFESGTVFQQNKKVMRRLKSEVWHHFSLAPMDSLKAVCRYCSCVISRGKKGDVGTSCLMRHLYRRHPEVVGNQKDFLGASLANSPYATLASAESSSKLTDLPAVVRKNHQGVFPTNSKKTSKLWNHFSICSADSTKVVCLHCGRTISRGKKPTNLGTSCLLRHLQRFHGHVLKNDVSEATLSRSPGIRRPLGIELSGPSSFRDSTEKFYDSHPVAKKITSLIAEMIALDLQPYSLVDNVGFNRLLEYLKPQYSLPSPSYFSRTAIPGMYDNVKQIIMSHLKEAESGVVHFTSGIWMSSQTREYLTLTAHWVTFASAVRPHCEDHHCSALLDVSQIDCDYSGNSIQKQLECWWEAWVTSIGLQIGITVTDNPSIGKMLSEGEHSSVQCFSHTVNLIVSEAIKSQRMVQNLLSIARKLCERVHRSPRAREKLAELQKEYELPQHQLIQDVPSKWSTSFHMLERLIEQKRAVNEVSIECNFRELISCDQWEVMQSVCHVLRPFDAASREMSAHMSTLSQVIPMIHILSRKVEMLFGETMGIDTMLKSLKEAMASRLSATLHDPRYIFATLLDPRYKASLFTEEEAEQYRQDLIRELEILNSTSEDTATSNGCDSGSPLKDTGTEESLWSLAPIKRDQREKLPEDMVLAYLEEEVLEHSCDPLTYWNLKRSSWPGLSTLAVRFLGCPPSTVPSEKLFSTPMDAGSFGQPRLMMEHFEKLIFLKVNLPLICFQY
binding [2]: binds
binding [3]: binds

B2: endogenous ZBED4 of Y79 retinoblastoma cells (protein, UniProt O75132 1-1171)
chain: MENNLKTCPKEDGDFVSDKIKFKIEEEDDDGIPPDSLERMDFKSEQEDMKQTDSGGERAGLGGTGCSCKPPGKYLSAESEDDYGALFSQYSSTLYDVAMEAVTQSLLSSRNMSSRKKSPAWKHFFISPRDSTKAICMYCVKEFSRGKNEKDLSTSCLMRHVRRAHPTVLIQENGSVSAVSSFPSPSLLLPPQPADAGDLSTILSPIKLVQKVASKIPSPDRITEESVSVVSSEEISSDMSVSEKCGREEALVGSSPHLPALHYDEPAENLAEKSLPLPKSTSGSRRRSAVWKHFYLSPLDNSKAVCIHCMNEFSRGKNGKDLGTSCLIRHMWRAHRAIVLQENGGTGIPPLYSTPPTLLPSLLPPEGELSSVSSSPVKPVRESPSASSSPDRLTEDLQSHLNPGDGLMEDVAAFSSSDDIGEASASSPEKQQADGLSPRLFESGAIFQQNKKVMKRLKSEVWHHFSLAPMDSLKAECRYCGCAISRGKKGDVGTSCLMRHLYRRHPEVVGSQKGFLGASLANSPYATLASAESSSSKLTDLPTVVTKNNQVMFPVNSKKTSKLWNHFSICSADSTKVVCLHCGRTISRGKKPTNLGTSCLLRHLQRFHSNVLKTEVSETARPSSPDTRVPRGTELSGASSFDDTNEKFYDSHPVAKKITSLIAEMIALDLQPYSFVDNVGFNRLLEYLKPQYSLPAPSYFSRTAIPGMYDNVKQIIMSHLKEAESGVIHFTSGIWMSNQTREYLTLTAHWVSFESPARPRCDDHHCSALLDVSQVDCDYSGNSIQKQLECWWEAWVTSTGLQVGITVTDNASIGKTLNEGEHSSVQCFSHTVNLIVSEAIKSQRMVQNLLSLARKICERVHRSPKAKEKLAELQREYALPQHHLIQDVPSKWSTSFHMLERLIEQKRAINEMSVECNFRELISCDQWEVMQSVCRALKPFEAASREMSTQMSTLSQVIPMVHILNRKVEMLFEETMGIDTMLRSLKEAMVSRLSATLHDPRYVFATLLDPRYKASLFTEEEAEQYKQDLIRELELMNSTSEDVAASHRCDAGSPSKDSAAEENLWSLVAKVKKKDPREKLPEAMVLAYLEEEVLEHSCDPLTYWNLKKASWPGLSALAVRFLGCPPSIVPSEKLFNTPTENGSLGQSRLMMEHFEKLIFLKVNLPLIYFQY
binding [4]: binds
binding [5]: binds
